Laboratory results: paper PMC6261971
Results are given in words; binding and its absence hold for the method and conditions named. In cells and extracts the contact can be indirect. Some results given as binding are weak or reduced against the parent protein; the word gives no strength. For part of these data: Sequences can lack the tags named with a protein.

Protein sequences, listed by entry. Tags and fused reporters are not part of them.
UniProt P62993: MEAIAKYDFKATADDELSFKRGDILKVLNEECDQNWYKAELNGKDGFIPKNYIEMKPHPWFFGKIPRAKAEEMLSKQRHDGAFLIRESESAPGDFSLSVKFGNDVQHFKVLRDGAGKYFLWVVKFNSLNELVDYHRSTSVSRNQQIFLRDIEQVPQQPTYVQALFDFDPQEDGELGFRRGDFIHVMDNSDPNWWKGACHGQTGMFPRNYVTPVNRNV

Tests used:
[1] = target: endogenous Grb2 (human (endogenous in BGC-823 and SGC-7901)) (UniProt P62993); assay: co-IP; BGC-823 cell lysates, endogenous proteins, immunoprecipitated with anti-Grb2 or anti-DENND1A antibody, western blot
[2] = target: endogenous Grb2 (human (endogenous in BGC-823 and SGC-7901)) (UniProt P62993); assay: co-IP; SGC-7901 cell lysates, endogenous proteins, immunoprecipitated with anti-Grb2 or anti-DENND1A antibody, western blot
[3] = target: Flag-Grb2 (UniProt P62993); assay: co-IP; BGC-823 cells transfected with Flag-Grb2 and HA-DENND1A, treated with or without EGF, western blot
[4] = target: Flag-Grb2 (UniProt P62993); assay: co-IP; HEK-293T cells transiently transfected with Flag-Grb2 and HA-DENND1A, immunoprecipitated with anti-HA or anti-Flag antibody, western blot
[5] = target: GST-Grb2 (UniProt P62993); assay: pull-down; GST-Grb2 bound to glutathione beads incubated in vitro with lysates of HEK-293T cells transfected with or without HA-DENND1A, western blot; only the target purified
[6] = target: Flag-Grb2 (UniProt P62993); assay: co-IP; HA-tagged DENND1A fragments with Flag-Grb2, and Flag-tagged Grb2 fragments with HA-DENND1A, in transfected cells (BGC-823 by the text, HEK-293T by the legend), immunoblotting

binding [1]	binding [2]	binding [3]	binding [4]	binding [5]	binding [6]	Binder
binds	binds	–	–	–	–	endogenous DENND1A (protein, UniProt Q8TEH3 1-1009) MGSRIKQNPETTFEVYVEVAYPRTGGTLSDPEVQRQFPEDYSDQEVLQTLTKFCFPFYVDSLTVSQVGQNFTFVLTDIDSKQRFGFCRLSSGAKSCFCILSYLPWFEVFYKLLNILADYTTKRQENQWNELLETLHKLPIPDPGVSVHLSVHSYFTVPDTRELPSIPENRNLTEYFVAVDVNNMLHLYASMLYERRILIICSKLSTLTACIHGSAAMLYPMYWQHVYIPVLPPHLLDYCCAPMPYLIGIHLSLMEKVRNMALDDVVILNVDTNTLETPFDDLQSLPNDVISSLKNRLKKVSTTTGDGVARAFLKAQAAFFGSYRNALKIEPEEPITFCEEAFVSHYRSGAMRQFLQNATQLQLFKQFIDGRLDLLNSGEGFSDVFEEEINMGEYAGSDKLYHQWLSTVRKGSGAILNTVKTKANPAMKTVYKFAKDHAKMGIKEVKNRLKQKDIAENGCAPTPEEQLPKTAPSPLVEAKDPKLREDRRPITVHFGQVRPPRPHVVKRPKSNIAVEGRRTSVPSPEQPQPYRTLRESDSAEGDEAESPEQQVRKSTGPVPAPPDRAASIDLLEDVFSNLDMEAALQPLGQAKSLEDLRAPKDLREQPGTFDYQRLDLGGSERSRGVTVALKLTHPYNKLWSLGQDDMAIPSKPPAASPEKPSALLGNSLALPRRPQNRDSILNPSDKEEVPTPTLGSITIPRPQGRKTPELGIVPPPPIPRPAKLQAAGAALGDVSERLQTDRDRRAALSPGLLPGVVPQGPTELLQPLSPGPGAAGTSSDALLALLDPLSTAWSGSTLPSRPATPNVATPFTPQFSFPPAGTPTPFPQPPLNPFVPSMPAAPPTLPLVSTPAGPFGAPPASLGPAFASGLLLSSAGFCAPHRSQPNLSALSMPNLFGQMPMGTHTSPLQPLGPPAVAPSRIRTLPLARSSARAAETKQGLALRPGDPPLLPPRPPQGLEPTLQPSAPQQARDPFEDLLQKTKQDVSPSPALAPAPDSVEQLRKQWETFE
–	–	binds	binds	binds	binds	HA-DENND1A (protein, UniProt Q8TEH3 1-1009) MGSRIKQNPETTFEVYVEVAYPRTGGTLSDPEVQRQFPEDYSDQEVLQTLTKFCFPFYVDSLTVSQVGQNFTFVLTDIDSKQRFGFCRLSSGAKSCFCILSYLPWFEVFYKLLNILADYTTKRQENQWNELLETLHKLPIPDPGVSVHLSVHSYFTVPDTRELPSIPENRNLTEYFVAVDVNNMLHLYASMLYERRILIICSKLSTLTACIHGSAAMLYPMYWQHVYIPVLPPHLLDYCCAPMPYLIGIHLSLMEKVRNMALDDVVILNVDTNTLETPFDDLQSLPNDVISSLKNRLKKVSTTTGDGVARAFLKAQAAFFGSYRNALKIEPEEPITFCEEAFVSHYRSGAMRQFLQNATQLQLFKQFIDGRLDLLNSGEGFSDVFEEEINMGEYAGSDKLYHQWLSTVRKGSGAILNTVKTKANPAMKTVYKFAKDHAKMGIKEVKNRLKQKDIAENGCAPTPEEQLPKTAPSPLVEAKDPKLREDRRPITVHFGQVRPPRPHVVKRPKSNIAVEGRRTSVPSPEQPQPYRTLRESDSAEGDEAESPEQQVRKSTGPVPAPPDRAASIDLLEDVFSNLDMEAALQPLGQAKSLEDLRAPKDLREQPGTFDYQRLDLGGSERSRGVTVALKLTHPYNKLWSLGQDDMAIPSKPPAASPEKPSALLGNSLALPRRPQNRDSILNPSDKEEVPTPTLGSITIPRPQGRKTPELGIVPPPPIPRPAKLQAAGAALGDVSERLQTDRDRRAALSPGLLPGVVPQGPTELLQPLSPGPGAAGTSSDALLALLDPLSTAWSGSTLPSRPATPNVATPFTPQFSFPPAGTPTPFPQPPLNPFVPSMPAAPPTLPLVSTPAGPFGAPPASLGPAFASGLLLSSAGFCAPHRSQPNLSALSMPNLFGQMPMGTHTSPLQPLGPPAVAPSRIRTLPLARSSARAAETKQGLALRPGDPPLLPPRPPQGLEPTLQPSAPQQARDPFEDLLQKTKQDVSPSPALAPAPDSVEQLRKQWETFE
